Patent publication US20170313808A1, “BIOACTIVE POLYMERIC LIQUID FORMULATIONS OF ABSORBABLE, SEGMENTED APLIPHATIC POLYURETHANE COMPOSITIONS” (priority 2008, published 2017)
At least one compound was matched to its structure with a doubt left.

Tested on: SKOV3
Assay: Testing with ovarian cancer cell lines (SKOV3)
Type: cell-based
Conditions: ovarian cancer cell line SKOV3

With `CCC[C@@H]1C[C@@H](C(=O)N[C@@H]([C@H]2O[C@H](SC)[C@H](O)[C@@H](O)[C@H]2O)[C@H](C)Cl)N(C)C1` [Clindamycin] the “Additional Uses and Properties” value was “Antineoplastic, as per testing”.
